{
  "source": "PubChem BioAssay AID1347426",
  "about": "(Functional Genomics Laboratory (NCATS/FGL), 2020)",
  "note": "About 1,400 (4.5%) of roughly 31,000 sequences were called active.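 Rule for the calls: active = median seed-adjusted z-score above 1 or below -1; inactive = the rest.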 The list shows a part of the results.",
  "data": [
    {"experiment": "Novel Modifiers of Survival Motor Neuron (SMN) Protein: Gene Identification via Genome-wide siRNA Screen;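 note: luminescence tracks full-length SMN protein made from the SMN2 reporter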", "conditions": "HEK293T SMN2-luciferase reporter, siRNA knockdown, 72 h; actives lie on both sides", "how_it_was_run": "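Genome-wide siRNA screen (10418 genes, 3 siRNAs each, 1 pmol per well) by reverse transfection in HEK293T cells stably carrying an SMN2-luciferase reporter; luminescence after 72 hours, normalized to negative-control siRNA, log10-transformed, MAD-scored.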", "values": [
      {"sequence": "GCAGAAAUAAUAUCUCGGATT against ADARB1", "median seed-adjusted z-score": "inactive: 0.375"},
      {"sequence": "GAAUCAACAUAUAACGAAUTT against GPR64", "median seed-adjusted z-score": "inactive: 0.527"},
      {"sequence": "GCGUGAACCUCAUAGGGAATT against FBN1", "median seed-adjusted z-score": "inactive: 0"},
      {"sequence": "GGAUGGUAUUUGUACUAAUTT against SGPP1", "median seed-adjusted z-score": "inactive: 0.0859"},
      {"sequence": "GGAAGCUUAUGUUCAAUCATT against COG5", "median seed-adjusted z-score": "inactive: -0.0609"},
      {"sequence": "AGGCCUUUCUGGGACCUUATT against ZP4", "median seed-adjusted z-score": "inactive: 0.0498"},
      {"sequence": "CCGCUAAUGUUCAAGGACATT against UNC5B", "median seed-adjusted z-score": "inactive: -0.0207"},
      {"sequence": "GCUACCUUGUCAGACACGATT against ATP7A", "median seed-adjusted z-score": "inactive: 0"},
      {"sequence": "GCGUUGUCUUGGUUAACAATT against SNAPIN", "median seed-adjusted z-score": "inactive: -0.132"},
      {"sequence": "GAGAAGUAUUCUUAAAACATT against ZFYVE28", "median seed-adjusted z-score": "inactive: 0.0678"},
      {"sequence": "CAUCAAAGCUUAUCAUGGATT against SPRR2B", "median seed-adjusted z-score": "inactive: 0.388"},
      {"sequence": "GGAUUACAGAGGAACGGCATT against ROR2", "median seed-adjusted z-score": "inactive: 0"},
      {"sequence": "GACUUUACGUUCUCAUUUUTT against VN1R5", "median seed-adjusted z-score": "inactive: 0.177"},
      {"sequence": "GAAUAUAACCUGCCGCUUUTT against CD44", "median seed-adjusted z-score": "inactive: 0"},
      {"sequence": "GGACCUUGUCUGUACUCAUTT against DRD1", "median seed-adjusted z-score": "inactive: -0.508"},
      {"sequence": "GGAUCUGUCUGAUAUUGCUTT against GDAP2", "median seed-adjusted z-score": "inactive: 0.199"},
      {"sequence": "CGAGAGAAUAUGUCACAUUTT against ADAMTS13", "median seed-adjusted z-score": "inactive: -0.276"},
      {"sequence": "CCAUCUAUGAUGAACCUGATT against DOK1", "median seed-adjusted z-score": "inactive: 0.0532"},
      {"sequence": "AACUCUACACGAUUCUUCATT against CSNK1A1L", "median seed-adjusted z-score": "inactive: -0.5"},
      {"sequence": "CUACUGUCUUUGACAAUUATT against RAC1", "median seed-adjusted z-score": "inactive: -0.0348"},
      {"sequence": "GUACGACUCCAGAUUCCAATT against ZNF521", "median seed-adjusted z-score": "inactive: -0.331"},
      {"sequence": "CCAGAACCCAAGCUGUUAATT against RNF130", "median seed-adjusted z-score": "inactive: -0.21"},
      {"sequence": "GCAAAGUGCCGAAACAAGATT against ATF3", "median seed-adjusted z-score": "inactive: -0.000485"},
      {"sequence": "GGACAUACUACAUUUCCUATT against TRIM45", "median seed-adjusted z-score": "inactive: -0.0974"},
      {"sequence": "CCGCAGACCUACUAAAACATT against MAP3K8", "median seed-adjusted z-score": "inactive: -0.533"},
      {"sequence": "GUGUUAAAGCUGAACAGGATT against LRIG3", "median seed-adjusted z-score": "inactive: 0.882"},
      {"sequence": "GGAUAUUACCUCUCCAGAATT against TRIM21", "median seed-adjusted z-score": "inactive: 0.524"},
      {"sequence": "GGACAACAACGAAUGAAAUTT against SETD1A", "median seed-adjusted z-score": "inactive: 0.0595"},
      {"sequence": "CAUAUUCUAUUGCUCAAAATT against BPNT1", "median seed-adjusted z-score": "inactive: 0.0844"},
      {"sequence": "GGAAAUCUGUCACAUCGUATT against NR1I3", "median seed-adjusted z-score": "inactive: 0.000933"},
      {"sequence": "GGGCAACUCUUCAUCUACATT against SLC5A10", "median seed-adjusted z-score": "inactive: 0.669"},
      {"sequence": "ACCUCAACAUGCACCCAGATT against SMPD2", "median seed-adjusted z-score": "inactive: -0.406"},
      {"sequence": "GAUUGUUCGCUAUCCACGATT against CYP7A1", "median seed-adjusted z-score": "inactive: -0.0092"},
      {"sequence": "CCACUAACCAAUGACGGAATT against APPL2", "median seed-adjusted z-score": "inactive: -0.245"},
      {"sequence": "GCAGCCUAAUCGACAUAGATT against RASGRP2", "median seed-adjusted z-score": "inactive: -0.00329"},
      {"sequence": "CCUGAUAGCUGGACGGAUATT against SLC5A4", "median seed-adjusted z-score": "inactive: 0.602"},
      {"sequence": "GCUAGAUGCUGGGAUGAGATT against SMC1B", "median seed-adjusted z-score": "inactive: 0"},
      {"sequence": "AGCUUGACAUUCUCAAAGATT against TIMM44", "median seed-adjusted z-score": "inactive: -0.569"},
      {"sequence": "ACAUCUUCAAGGCCCUUUUTT against CTDSP2", "median seed-adjusted z-score": "inactive: 0.498"},
      {"sequence": "CGACAGCGACUGCAUGAGATT against SURF6", "median seed-adjusted z-score": "inactive: 0.122"},
      {"sequence": "GAACCGAGGUCGACAUGAATT against IMP4", "median seed-adjusted z-score": "inactive: -0.359"},
      {"sequence": "ACAGAACCGUGGUUAACAUTT against SPR", "median seed-adjusted z-score": "inactive: 0.0329"},
      {"sequence": "UGAGGUCACAUUUCACUUATT against MAFF", "median seed-adjusted z-score": "inactive: 0.42"},
      {"sequence": "GCUAUGAGAUGGUCAAAAUTT against LDHAL6A", "median seed-adjusted z-score": "inactive: -0.15"},
      {"sequence": "GCAUGUGACUUACCUGGGATT against FUT5", "median seed-adjusted z-score": "inactive: 0"},
      {"sequence": "CCUUCCUAAUUUAACCAGATT against IPPK", "median seed-adjusted z-score": "inactive: 0.389"},
      {"sequence": "GAACUAUGCUAUACCAGAATT against IQCH", "median seed-adjusted z-score": "inactive: 0"},
      {"sequence": "UGCUCAGCAGUACAACGUATT against SYN1", "median seed-adjusted z-score": "inactive: -0.458"},
      {"sequence": "GGUGGACAUGAGCAAAGUATT against SRRM1", "median seed-adjusted z-score": "inactive: -0.861"},
      {"sequence": "GCAGCUGAGUAUCGAGAAATT against PIK3R1", "median seed-adjusted z-score": "inactive: 0.196"},
      {"sequence": "CCGCUGUGCUCAAAUCUGATT against RBM10", "median seed-adjusted z-score": "inactive: -0.0114"},
      {"sequence": "GGAAACGACCUGUCAAAGATT against PHAX", "median seed-adjusted z-score": "inactive: -0.0716"},
      {"sequence": "CAAGCAAAUUCAUAGUGUATT against ZNF493", "median seed-adjusted z-score": "inactive: 0.0872"},
      {"sequence": "GCACGACGACAAUAUCAUUTT against PEX3", "median seed-adjusted z-score": "inactive: 0.142"},
      {"sequence": "CAAGUGUUCUCACCAGAGATT against ZBTB25", "median seed-adjusted z-score": "inactive: 0"},
      {"sequence": "GUGUUUAGGUAAUCUAAUUTT against CDKL2", "median seed-adjusted z-score": "inactive: -0.293"},
      {"sequence": "AGACAGCUGCGAAUCUGGATT against MEFV", "median seed-adjusted z-score": "inactive: 0"},
      {"sequence": "UGAUCAUCAUGCUUCCGGATT against SERPINB6", "median seed-adjusted z-score": "inactive: 0.0155"},
      {"sequence": "CUGUGAAGAUAGAAGGAUATT against CAPZA1", "median seed-adjusted z-score": "inactive: -0.0237"},
      {"sequence": "GAAUCUGGUGGGCCCUUUATT against POFUT2", "median seed-adjusted z-score": "inactive: -0.86"},
      {"sequence": "CGAGGAUAUUGACUGGGUATT against PRKCZ", "median seed-adjusted z-score": "inactive: -0.175"},
      {"sequence": "GAAUAGAGUCUGUUAAUGUTT against E2F8", "median seed-adjusted z-score": "inactive: 0.209"},
      {"sequence": "GGCUGAAUUUUGCAAGGCATT against GOT2", "median seed-adjusted z-score": "inactive: 0.205"},
      {"sequence": "CAAGCAAAUUGAGAAUAUATT against GBX2", "median seed-adjusted z-score": "inactive: -0.442"},
      {"sequence": "GAUGAGUGUUACCAAGUAATT against PDS5A", "median seed-adjusted z-score": "inactive: -0.29"},
      {"sequence": "CGGGCUUAAUUAUUAGUAATT against ZNF248", "median seed-adjusted z-score": "inactive: -0.0486"},
      {"sequence": "GCCGAGCAAUAGUAACGAUTT against ZMIZ1", "median seed-adjusted z-score": "inactive: -0.382"},
      {"sequence": "CACUUCCAGUCUUACAUCATT against BMPR1B", "median seed-adjusted z-score": "inactive: 0.5"},
      {"sequence": "GUGCGAAAGAGAAUCUUAATT against SPIRE1", "median seed-adjusted z-score": "inactive: 0.336"}
    ]}
  ]
}
